Test results reported in ChEMBL document CHEMBL5210121, “Affinity On-target Cellular Literature for EUbOPEN Chemogenomics Library wave 3” (2023).

Target: T1, Tyrosine-protein kinase JAK3 (Homo sapiens, UniProt P52333)
T1 sequence (P52333 whole entry): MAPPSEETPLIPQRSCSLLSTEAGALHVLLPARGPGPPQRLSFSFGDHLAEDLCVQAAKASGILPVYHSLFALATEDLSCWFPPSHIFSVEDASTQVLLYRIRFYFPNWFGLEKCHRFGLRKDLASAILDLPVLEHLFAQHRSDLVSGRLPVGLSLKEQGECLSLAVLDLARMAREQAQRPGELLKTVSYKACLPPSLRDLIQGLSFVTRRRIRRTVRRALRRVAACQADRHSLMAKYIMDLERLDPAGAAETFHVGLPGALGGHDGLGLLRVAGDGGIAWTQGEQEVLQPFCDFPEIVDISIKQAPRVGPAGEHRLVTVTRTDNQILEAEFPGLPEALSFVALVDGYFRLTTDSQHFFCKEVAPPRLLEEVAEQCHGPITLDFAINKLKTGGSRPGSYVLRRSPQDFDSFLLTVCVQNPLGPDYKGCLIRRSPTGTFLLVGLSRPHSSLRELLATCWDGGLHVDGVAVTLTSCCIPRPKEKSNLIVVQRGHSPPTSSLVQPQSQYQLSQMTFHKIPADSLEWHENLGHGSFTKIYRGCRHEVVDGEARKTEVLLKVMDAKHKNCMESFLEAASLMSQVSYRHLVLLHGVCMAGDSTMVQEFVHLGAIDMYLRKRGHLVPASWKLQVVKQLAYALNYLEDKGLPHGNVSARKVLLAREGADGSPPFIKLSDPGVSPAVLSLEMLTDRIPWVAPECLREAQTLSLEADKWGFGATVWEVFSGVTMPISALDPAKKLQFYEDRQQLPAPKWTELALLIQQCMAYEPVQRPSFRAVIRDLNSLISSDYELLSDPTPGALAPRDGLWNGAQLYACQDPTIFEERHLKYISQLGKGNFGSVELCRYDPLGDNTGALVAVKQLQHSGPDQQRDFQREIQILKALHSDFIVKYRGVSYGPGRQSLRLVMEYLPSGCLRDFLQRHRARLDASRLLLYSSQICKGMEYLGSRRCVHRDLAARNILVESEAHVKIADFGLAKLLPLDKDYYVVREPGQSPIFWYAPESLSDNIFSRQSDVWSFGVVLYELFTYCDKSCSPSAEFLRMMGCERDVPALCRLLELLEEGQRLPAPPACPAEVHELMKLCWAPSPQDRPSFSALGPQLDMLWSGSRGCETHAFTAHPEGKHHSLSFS

IC50: 100 nM
SMILES: CN(C)C(=O)/C(C#N)=C/c1ccc(-c2nc3cnc4[nH]ccc4c3n2C2CCCCC2)o1
